Binding data for one substance are collected here from article PMC6125358, “Mapping the Interface of a GPCR Dimer: A Structural Model of the A2A Adenosine and D2 Dopamine Receptor Heteromer” (Frontiers in Pharmacology, 2018).

Chains of the proteins cited; added tags and fusions are not shown. Lines headed by an entry give the natural chain unless they say otherwise; changes in a name come on top.
UniProt P61169: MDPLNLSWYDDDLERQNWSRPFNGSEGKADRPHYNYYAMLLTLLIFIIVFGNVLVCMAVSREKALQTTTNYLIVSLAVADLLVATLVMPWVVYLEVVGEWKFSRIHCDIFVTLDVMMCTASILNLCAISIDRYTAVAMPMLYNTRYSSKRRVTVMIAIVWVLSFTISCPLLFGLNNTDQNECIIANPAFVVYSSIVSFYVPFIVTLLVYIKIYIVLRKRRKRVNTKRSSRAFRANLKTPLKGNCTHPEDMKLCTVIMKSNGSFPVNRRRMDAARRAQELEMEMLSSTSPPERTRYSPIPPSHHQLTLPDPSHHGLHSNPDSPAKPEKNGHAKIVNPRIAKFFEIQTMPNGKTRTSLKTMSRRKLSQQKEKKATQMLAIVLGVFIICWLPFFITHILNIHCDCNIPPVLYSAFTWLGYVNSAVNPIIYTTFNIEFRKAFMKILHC
UniProt P30543: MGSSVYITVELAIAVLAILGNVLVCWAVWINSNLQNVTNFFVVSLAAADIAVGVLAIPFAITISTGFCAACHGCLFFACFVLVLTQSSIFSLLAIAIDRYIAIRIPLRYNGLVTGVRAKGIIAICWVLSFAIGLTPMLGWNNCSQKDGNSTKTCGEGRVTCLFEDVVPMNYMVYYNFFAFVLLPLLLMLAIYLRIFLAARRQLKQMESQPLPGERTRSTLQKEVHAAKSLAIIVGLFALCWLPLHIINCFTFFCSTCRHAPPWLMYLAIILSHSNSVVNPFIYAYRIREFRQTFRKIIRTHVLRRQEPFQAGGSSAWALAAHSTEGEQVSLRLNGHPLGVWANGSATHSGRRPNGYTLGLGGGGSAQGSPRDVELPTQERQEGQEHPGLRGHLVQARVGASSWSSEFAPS

These are yes or no findings as the source states them, for the method shown. Binding seen in cells or lysates may run through a third protein. Some entries that bind do so weakly or less than the wild type.

The target of this test is D2 dopamine receptor, endogenous in rat primary striatal neuronal cells (rat (endogenous in primary striatal neuronal cells)) (UniProt P61169). The test can be described thus: proximity ligation; in situ PLA in rat primary striatal neuronal cells (endogenous receptors); vehicle or TM-V^A2A peptide.

On to “A2A adenosine receptor, endogenous in rat primary striatal neuronal cells (from UniProt P30543 1-410)”, for which the binding entry is on record as “binds”.
